For the experiment, the target named is Histone H1 (linker subunit). The experiment is described as follows: ELISA; solid-phase binding assay: 1 μg/ml of each histone subunit coated on 96-well plates in 50 mM NaHCO3/Na2CO3 buffer, pH 9.6, 12 h at 4 °C; blocked with PBS containing 5% BSA; 1 μg/ml biotinylated Clu, SAP, CRP or HSA for 2 h; HRP-labeled streptavidin; OD at 492 nm; both purified.

Results are given in words; binding and its absence hold for the method and conditions named. A result given as binding can be weak or reduced; the word gives no strength.

Data on one molecule can be found in paper PMC4917652.

B1: C-reactive protein (CRP), biotinylated (protein, UniProt P02741 19-224)
chain: QTDMSRKAFVFPKESDTSYVSLKAPLTKPLKAFTVCLHFYTELSSTRGYSIFSYATKRQDNEILIFWSKDIGYSFTVGGSEILFEVPEVTVAPVHICTSWESASGIVEFWVDGKPRVRKSLKKGYTVGAEASIILGQEQDSFGGNFEGSQSLVGDIGNVNMWDFVLSPDEINTIYLGGPFSPNVLNWRALKYEVQGEVFTKPQLWP
modifications: biotinylated (EZ-Link Sulfo-NHS-LC-Biotin Kit); sites not stated
In the case of B1, the binding entry was “binds”.
